We go through 3 molecules from PMC3849980.

Amino acid sequences for entries named in this document (tags omitted). Residues count along the entry.
UniProt P02769, residues 25-607: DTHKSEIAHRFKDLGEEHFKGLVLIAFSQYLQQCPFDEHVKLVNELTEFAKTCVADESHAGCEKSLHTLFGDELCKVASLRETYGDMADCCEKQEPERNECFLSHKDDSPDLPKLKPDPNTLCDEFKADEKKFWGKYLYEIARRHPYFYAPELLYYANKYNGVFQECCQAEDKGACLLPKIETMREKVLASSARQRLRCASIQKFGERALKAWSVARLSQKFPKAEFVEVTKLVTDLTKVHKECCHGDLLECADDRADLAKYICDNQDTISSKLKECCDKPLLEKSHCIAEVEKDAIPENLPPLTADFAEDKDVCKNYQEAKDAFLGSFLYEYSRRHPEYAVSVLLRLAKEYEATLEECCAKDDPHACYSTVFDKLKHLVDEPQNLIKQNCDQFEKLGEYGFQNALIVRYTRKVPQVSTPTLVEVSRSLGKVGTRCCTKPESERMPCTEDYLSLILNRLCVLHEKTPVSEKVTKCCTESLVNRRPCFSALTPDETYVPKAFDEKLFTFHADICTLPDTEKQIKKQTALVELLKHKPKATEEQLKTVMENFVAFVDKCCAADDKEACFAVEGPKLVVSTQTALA

Experiment [1] deals with bovine serum albumin (BSA) (bovine) (UniProt P02769). Kind of experiment: ELISA; wells coated with Avastin mAb, control antibodies or BSA at 4°C overnight, blocked with 1% BSA in TBS; affinity-selected phage added, room temperature 2 h; HRP anti-M13 antibody, OD490; only the target purified. On the technique in general: In an ELISA, binding on a coated surface is turned into a signal by an enzyme label.

Experiment [2] has the same target. Kind of experiment: ELISA; wells coated with Avastin, control antibodies or BSA overnight, blocked with 1% BSA; C-terminally biotin-labeled 12P added; HRP-streptavidin, OPD; both purified.

No constants are given. Whether binding was seen depends on the method and setting.

B1: Phage 1: phage plaques displaying peptide … (peptide)
chain: DHTLYTPYHTHP
For the molecule B1, the binding result in experiment [1] is “no binding”.

B2: 12P, chemically synthesized mimotope peptide … (peptide)
peptide: DHTLYTPYHTHP
modifications: C-terminally biotin-labeled
Consider B2, for which the binding entry in experiment [2] is “no binding”.

B3: Phage 2: phage plaques displaying peptide … (peptide)
chain: NHFGKFLDALAG
In the case of B3, the binding entry in experiment [1] is recorded as “no binding”.
